Results are given in words; binding and its absence hold for the method and conditions named. Binding seen in cells or lysates may run through a third protein. Some results given as binding are weak or reduced against the parent protein; the word gives no strength.
Target: T1, RASSF-1A protein (human (endogenous in SCC9)) (UniProt Q9NS23)
T1 sequence: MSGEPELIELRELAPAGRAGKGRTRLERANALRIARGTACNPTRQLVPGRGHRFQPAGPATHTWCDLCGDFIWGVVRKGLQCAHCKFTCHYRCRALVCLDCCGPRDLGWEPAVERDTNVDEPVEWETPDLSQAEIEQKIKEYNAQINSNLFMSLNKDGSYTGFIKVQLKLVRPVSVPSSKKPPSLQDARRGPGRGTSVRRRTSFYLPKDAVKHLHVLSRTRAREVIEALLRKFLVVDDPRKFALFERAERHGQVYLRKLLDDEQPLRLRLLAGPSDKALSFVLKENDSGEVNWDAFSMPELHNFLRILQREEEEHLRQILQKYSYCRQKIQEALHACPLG
Experiment: co-IP; SCC9 whole-cell lysate; Protein A/G agarose with rabbit anti-RASSF-1A or rabbit anti-CyclinD1, normal rabbit IgG as control; analysed by western blot

Amino acid sequences for entries named in this document (tags omitted).
UniProt P24385: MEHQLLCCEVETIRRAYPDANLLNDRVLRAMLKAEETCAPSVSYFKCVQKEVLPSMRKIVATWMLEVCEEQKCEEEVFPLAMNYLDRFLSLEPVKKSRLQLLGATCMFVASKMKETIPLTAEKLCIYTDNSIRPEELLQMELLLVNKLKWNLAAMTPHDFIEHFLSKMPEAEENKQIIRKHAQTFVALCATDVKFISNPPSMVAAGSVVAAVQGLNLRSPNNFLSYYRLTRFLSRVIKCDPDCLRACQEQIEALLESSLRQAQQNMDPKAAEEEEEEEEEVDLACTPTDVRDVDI

CyclinD1 protein (from UniProt P24385 1-295)
binding: binds

From PMC6693157
